{"sequences": {"note": "Protein sequences, listed by entry. Tags and fused reporters are not part of them. Lines headed by an entry give the natural chain unless they say otherwise; changes in a name come on top.", "UniProt P49792, whole entry": "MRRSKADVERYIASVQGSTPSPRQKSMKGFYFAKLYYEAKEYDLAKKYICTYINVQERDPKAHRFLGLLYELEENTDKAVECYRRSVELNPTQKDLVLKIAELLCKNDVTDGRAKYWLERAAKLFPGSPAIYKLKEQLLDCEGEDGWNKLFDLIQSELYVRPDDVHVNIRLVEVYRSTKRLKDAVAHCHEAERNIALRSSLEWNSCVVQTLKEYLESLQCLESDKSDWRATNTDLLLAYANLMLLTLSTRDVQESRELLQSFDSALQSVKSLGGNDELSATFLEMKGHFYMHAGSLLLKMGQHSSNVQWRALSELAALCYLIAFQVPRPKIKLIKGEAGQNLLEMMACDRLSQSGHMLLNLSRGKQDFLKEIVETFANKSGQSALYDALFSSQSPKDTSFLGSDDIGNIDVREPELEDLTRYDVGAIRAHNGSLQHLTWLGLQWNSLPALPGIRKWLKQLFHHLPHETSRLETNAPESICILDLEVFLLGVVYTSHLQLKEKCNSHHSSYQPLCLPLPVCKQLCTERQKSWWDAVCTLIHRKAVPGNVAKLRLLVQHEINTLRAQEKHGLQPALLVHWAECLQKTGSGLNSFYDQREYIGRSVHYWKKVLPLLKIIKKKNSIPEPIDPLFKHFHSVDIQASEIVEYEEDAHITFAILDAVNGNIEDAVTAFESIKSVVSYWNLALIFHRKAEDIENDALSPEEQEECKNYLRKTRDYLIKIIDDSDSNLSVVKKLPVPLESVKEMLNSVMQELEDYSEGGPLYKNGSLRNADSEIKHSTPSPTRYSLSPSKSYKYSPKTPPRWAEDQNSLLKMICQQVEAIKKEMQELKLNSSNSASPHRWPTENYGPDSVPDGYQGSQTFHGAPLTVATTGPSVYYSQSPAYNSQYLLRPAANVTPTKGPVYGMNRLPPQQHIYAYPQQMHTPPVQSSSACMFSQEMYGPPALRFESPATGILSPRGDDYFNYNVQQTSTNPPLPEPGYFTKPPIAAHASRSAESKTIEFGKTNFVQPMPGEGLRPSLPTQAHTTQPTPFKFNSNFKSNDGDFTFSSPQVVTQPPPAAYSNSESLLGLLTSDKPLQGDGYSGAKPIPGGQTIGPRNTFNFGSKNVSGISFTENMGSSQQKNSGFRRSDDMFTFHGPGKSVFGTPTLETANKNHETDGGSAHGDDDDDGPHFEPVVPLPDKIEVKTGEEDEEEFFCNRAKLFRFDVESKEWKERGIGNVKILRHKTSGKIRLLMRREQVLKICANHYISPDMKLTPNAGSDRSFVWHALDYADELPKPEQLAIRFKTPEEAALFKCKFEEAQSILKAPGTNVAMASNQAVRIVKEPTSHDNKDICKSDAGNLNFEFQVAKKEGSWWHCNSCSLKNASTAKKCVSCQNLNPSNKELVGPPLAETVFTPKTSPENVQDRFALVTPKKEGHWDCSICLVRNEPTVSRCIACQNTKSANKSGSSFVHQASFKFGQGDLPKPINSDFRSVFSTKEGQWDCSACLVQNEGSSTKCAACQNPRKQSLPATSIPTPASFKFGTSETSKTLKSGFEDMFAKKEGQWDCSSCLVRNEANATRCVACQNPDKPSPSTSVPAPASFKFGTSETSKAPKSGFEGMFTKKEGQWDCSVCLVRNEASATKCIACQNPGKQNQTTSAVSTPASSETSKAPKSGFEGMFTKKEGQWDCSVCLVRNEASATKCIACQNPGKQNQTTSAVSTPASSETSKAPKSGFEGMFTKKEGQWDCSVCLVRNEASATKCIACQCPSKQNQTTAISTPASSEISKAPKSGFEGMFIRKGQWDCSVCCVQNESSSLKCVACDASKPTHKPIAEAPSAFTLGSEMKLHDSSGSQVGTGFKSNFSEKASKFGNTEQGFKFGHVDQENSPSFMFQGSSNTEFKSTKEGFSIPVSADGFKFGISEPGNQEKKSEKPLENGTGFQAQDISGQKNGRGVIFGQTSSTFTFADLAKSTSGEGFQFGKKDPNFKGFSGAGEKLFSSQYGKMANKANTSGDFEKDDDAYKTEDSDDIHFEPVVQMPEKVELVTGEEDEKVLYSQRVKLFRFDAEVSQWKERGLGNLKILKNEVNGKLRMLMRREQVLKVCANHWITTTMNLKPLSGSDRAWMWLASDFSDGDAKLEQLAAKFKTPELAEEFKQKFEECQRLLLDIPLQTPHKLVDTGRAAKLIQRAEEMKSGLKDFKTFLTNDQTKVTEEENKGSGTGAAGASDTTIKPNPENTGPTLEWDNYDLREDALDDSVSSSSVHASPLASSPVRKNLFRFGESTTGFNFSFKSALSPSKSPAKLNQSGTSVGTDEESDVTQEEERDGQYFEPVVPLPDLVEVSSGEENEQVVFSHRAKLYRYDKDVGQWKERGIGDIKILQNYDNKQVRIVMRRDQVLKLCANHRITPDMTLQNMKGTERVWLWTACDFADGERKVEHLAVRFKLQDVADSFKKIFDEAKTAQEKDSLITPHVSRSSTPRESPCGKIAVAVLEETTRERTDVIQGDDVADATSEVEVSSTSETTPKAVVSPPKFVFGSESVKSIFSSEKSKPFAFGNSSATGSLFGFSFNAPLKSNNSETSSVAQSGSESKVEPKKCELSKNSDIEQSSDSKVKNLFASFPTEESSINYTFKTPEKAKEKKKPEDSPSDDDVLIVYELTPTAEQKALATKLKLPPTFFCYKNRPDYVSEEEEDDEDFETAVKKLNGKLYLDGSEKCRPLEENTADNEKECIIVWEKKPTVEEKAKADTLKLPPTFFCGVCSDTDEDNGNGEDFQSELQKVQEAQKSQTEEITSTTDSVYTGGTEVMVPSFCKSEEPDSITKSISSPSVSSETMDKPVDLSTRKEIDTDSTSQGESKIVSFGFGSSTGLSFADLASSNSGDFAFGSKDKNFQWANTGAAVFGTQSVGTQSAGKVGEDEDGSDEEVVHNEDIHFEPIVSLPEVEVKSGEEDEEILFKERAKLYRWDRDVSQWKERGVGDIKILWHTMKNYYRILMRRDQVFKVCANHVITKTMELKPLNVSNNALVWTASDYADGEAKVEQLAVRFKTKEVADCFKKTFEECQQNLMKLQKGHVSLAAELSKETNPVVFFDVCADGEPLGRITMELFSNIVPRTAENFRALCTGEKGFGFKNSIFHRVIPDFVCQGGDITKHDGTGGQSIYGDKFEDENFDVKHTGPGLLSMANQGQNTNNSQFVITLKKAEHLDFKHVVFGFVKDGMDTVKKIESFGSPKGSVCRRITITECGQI", "UniProt P53611": "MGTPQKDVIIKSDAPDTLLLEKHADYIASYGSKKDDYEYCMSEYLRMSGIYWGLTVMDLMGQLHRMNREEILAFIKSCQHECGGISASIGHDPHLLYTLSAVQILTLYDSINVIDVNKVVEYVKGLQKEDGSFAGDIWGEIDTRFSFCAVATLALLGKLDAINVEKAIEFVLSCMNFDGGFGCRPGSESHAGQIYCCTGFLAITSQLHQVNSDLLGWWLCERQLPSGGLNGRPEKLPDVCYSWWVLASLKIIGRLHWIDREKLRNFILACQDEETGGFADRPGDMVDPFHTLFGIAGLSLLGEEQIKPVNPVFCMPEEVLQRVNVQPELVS", "UniProt P17980, whole entry": "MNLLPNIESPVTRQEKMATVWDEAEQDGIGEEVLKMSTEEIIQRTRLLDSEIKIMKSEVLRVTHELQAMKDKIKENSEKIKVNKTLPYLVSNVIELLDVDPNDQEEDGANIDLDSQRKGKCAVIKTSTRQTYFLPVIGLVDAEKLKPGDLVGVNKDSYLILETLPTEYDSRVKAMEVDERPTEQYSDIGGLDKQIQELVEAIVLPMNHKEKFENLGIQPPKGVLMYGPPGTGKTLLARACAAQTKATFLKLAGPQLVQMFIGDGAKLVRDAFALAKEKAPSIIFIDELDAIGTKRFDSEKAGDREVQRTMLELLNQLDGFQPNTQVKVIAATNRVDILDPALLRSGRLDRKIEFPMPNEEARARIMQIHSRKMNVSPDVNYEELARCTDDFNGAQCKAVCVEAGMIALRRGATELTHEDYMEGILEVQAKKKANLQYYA", "UniProt P25789": "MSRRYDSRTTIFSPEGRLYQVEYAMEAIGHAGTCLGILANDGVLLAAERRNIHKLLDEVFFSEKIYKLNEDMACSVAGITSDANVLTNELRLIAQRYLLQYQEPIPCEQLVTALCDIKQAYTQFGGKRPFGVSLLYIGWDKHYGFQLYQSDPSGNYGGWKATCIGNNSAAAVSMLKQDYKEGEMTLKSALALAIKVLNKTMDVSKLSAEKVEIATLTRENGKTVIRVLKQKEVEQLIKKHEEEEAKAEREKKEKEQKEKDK", "UniProt O95716": "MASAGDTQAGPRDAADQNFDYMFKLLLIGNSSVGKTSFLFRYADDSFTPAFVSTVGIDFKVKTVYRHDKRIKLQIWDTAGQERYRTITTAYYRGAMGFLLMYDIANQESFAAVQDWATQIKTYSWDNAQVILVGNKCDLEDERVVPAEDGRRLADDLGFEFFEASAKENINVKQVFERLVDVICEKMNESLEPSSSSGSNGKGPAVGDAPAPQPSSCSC", "UniProt O00487, whole entry": "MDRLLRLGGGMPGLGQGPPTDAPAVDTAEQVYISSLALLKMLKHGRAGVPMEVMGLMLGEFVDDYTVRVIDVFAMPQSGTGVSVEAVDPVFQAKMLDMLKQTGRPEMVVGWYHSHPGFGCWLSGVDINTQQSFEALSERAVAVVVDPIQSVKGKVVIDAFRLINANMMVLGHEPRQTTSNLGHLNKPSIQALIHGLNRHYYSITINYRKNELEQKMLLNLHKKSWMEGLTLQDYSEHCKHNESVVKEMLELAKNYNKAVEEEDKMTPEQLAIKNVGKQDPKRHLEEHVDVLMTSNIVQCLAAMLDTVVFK", "UniProt Q5JS54": "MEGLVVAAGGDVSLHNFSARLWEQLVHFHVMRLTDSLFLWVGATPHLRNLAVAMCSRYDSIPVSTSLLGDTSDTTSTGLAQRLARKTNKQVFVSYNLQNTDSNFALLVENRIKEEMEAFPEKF", "UniProt Q96S59, whole entry": "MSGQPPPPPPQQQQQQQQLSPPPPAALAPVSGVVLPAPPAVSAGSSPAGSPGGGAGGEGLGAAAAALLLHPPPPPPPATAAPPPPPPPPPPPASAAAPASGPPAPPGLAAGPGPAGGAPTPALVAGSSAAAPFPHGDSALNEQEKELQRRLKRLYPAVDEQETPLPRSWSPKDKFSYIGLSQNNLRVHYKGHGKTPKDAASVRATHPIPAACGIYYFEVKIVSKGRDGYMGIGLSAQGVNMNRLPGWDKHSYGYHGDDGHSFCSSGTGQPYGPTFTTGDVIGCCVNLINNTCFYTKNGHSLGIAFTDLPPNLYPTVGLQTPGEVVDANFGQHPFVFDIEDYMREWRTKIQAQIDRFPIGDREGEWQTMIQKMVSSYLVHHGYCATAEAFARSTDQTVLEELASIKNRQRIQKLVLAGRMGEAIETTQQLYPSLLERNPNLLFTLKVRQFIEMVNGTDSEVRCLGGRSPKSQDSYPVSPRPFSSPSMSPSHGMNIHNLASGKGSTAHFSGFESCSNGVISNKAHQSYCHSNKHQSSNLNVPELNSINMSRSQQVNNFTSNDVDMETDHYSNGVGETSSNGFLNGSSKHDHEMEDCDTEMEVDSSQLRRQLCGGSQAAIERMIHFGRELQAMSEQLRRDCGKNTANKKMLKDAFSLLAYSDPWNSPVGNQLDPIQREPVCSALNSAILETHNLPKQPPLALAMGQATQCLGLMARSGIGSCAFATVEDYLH", "UniProt P62834": "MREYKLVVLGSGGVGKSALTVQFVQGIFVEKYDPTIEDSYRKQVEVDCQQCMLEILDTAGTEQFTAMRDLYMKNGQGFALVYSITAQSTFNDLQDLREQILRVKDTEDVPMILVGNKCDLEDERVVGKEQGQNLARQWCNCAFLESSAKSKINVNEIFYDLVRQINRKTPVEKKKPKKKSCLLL", "UniProt Q8WUK0": "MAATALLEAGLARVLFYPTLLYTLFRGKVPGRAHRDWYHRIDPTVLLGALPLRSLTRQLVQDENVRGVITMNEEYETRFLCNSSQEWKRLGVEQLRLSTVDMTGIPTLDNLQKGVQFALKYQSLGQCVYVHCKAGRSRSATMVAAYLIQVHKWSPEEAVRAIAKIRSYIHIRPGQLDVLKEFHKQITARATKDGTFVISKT", "UniProt Q9UHX1": "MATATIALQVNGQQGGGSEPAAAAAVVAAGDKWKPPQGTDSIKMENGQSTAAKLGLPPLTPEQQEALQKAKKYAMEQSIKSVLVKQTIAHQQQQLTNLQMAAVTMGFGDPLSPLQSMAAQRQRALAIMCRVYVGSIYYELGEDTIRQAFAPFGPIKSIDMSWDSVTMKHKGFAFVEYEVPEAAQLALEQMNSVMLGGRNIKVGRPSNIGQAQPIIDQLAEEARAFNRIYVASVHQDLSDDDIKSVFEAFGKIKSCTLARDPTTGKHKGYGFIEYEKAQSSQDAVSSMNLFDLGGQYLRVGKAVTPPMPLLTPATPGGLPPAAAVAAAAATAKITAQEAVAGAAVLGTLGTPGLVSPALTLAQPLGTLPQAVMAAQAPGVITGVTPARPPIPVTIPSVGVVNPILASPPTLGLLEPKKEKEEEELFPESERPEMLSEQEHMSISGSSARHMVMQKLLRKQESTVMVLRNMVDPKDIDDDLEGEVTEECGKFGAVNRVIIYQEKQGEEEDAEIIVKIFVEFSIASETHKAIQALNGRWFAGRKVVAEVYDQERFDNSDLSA"}, "source": "the supplement of paper PMC7666118", "compound": "COc1ccc(Cn2ccc3ccc(C(=O)NO)cc32)cc1", "assay": "dose-dependent thermal stabilisation call (2D-TPP, DLPTP, 10% FDR) (binary (1 = stabilised)); higher = stabilised by the compound", "conditions": "system: HL-60 intact cells; concentration range 0.04-10 µM", "note": "Some of the results follow."}
{"target": "PUSL1 (UniProt Q8N0Z8)", "values": [{"measurement": "dose-dependent thermal stabilisation call", "value": "inactive: 0"}]}
{"target": "RBM39 (UniProt Q14498)", "values": [{"measurement": "dose-dependent thermal stabilisation call", "value": "inactive: 0"}]}
{"target": "QPRT (UniProt Q15274)", "values": [{"measurement": "dose-dependent thermal stabilisation call", "value": "inactive: 0"}]}
{"target": "RAP2A (UniProt P10114)", "values": [{"measurement": "dose-dependent thermal stabilisation call", "value": "inactive: 0"}]}
{"target": "RANBP2 (UniProt P49792)", "values": [{"measurement": "dose-dependent thermal stabilisation call", "value": "inactive: 0"}]}
{"target": "RAB1B (UniProt Q9H0U4)", "values": [{"measurement": "dose-dependent thermal stabilisation call", "value": "inactive: 0"}]}
{"target": "PRMT7 (UniProt Q9NVM4)", "values": [{"measurement": "dose-dependent thermal stabilisation call", "value": "inactive: 0"}]}
{"target": "RABGGTB (UniProt P53611)", "values": [{"measurement": "dose-dependent thermal stabilisation call", "value": "inactive: 0"}]}
{"target": "PSMC3 (UniProt P17980)", "values": [{"measurement": "dose-dependent thermal stabilisation call", "value": "inactive: 0"}]}
{"target": "PTCD3 (UniProt Q96EY7)", "values": [{"measurement": "dose-dependent thermal stabilisation call", "value": "inactive: 0"}]}
{"target": "RABL3 (UniProt Q5HYI8)", "values": [{"measurement": "dose-dependent thermal stabilisation call", "value": "inactive: 0"}]}
{"target": "PSPC1 (UniProt Q8WXF1)", "values": [{"measurement": "dose-dependent thermal stabilisation call", "value": "inactive: 0"}]}
{"target": "PSMB1 (UniProt P20618)", "values": [{"measurement": "dose-dependent thermal stabilisation call", "value": "inactive: 0"}]}
{"target": "RANBP6 (UniProt O60518)", "values": [{"measurement": "dose-dependent thermal stabilisation call", "value": "inactive: 0"}]}
{"target": "PRR3 (UniProt P79522)", "values": [{"measurement": "dose-dependent thermal stabilisation call", "value": "inactive: 0"}]}
{"target": "PRPF38B (UniProt Q5VTL8)", "values": [{"measurement": "dose-dependent thermal stabilisation call", "value": "inactive: 0"}]}
{"target": "PSMA4 (UniProt P25789)", "values": [{"measurement": "dose-dependent thermal stabilisation call", "value": "inactive: 0"}]}
{"target": "R3HCC1 (UniProt Q9Y3T6)", "values": [{"measurement": "dose-dependent thermal stabilisation call", "value": "inactive: 0"}]}
{"target": "RAB3D (UniProt O95716)", "values": [{"measurement": "dose-dependent thermal stabilisation call", "value": "inactive: 0"}]}
{"target": "PSMD14 (UniProt O00487)", "values": [{"measurement": "dose-dependent thermal stabilisation call", "value": "inactive: 0"}]}
{"target": "RB1CC1 (UniProt Q8TDY2)", "values": [{"measurement": "dose-dependent thermal stabilisation call", "value": "inactive: 0"}]}
{"target": "PTPLAD1 (UniProt Q9P035)", "values": [{"measurement": "dose-dependent thermal stabilisation call", "value": "inactive: 0"}]}
{"target": "RASA3 (UniProt Q14644)", "values": [{"measurement": "dose-dependent thermal stabilisation call", "value": "inactive: 0"}]}
{"target": "PSMG4 (UniProt Q5JS54)", "values": [{"measurement": "dose-dependent thermal stabilisation call", "value": "inactive: 0"}]}
{"target": "PSTPIP2 (UniProt Q9H939)", "values": [{"measurement": "dose-dependent thermal stabilisation call", "value": "inactive: 0"}]}
{"target": "RANBP9 (UniProt Q96S59)", "values": [{"measurement": "dose-dependent thermal stabilisation call", "value": "inactive: 0"}]}
{"target": "RAP1A (UniProt P62834)", "values": [{"measurement": "dose-dependent thermal stabilisation call", "value": "inactive: 0"}]}
{"target": "PRPSAP1 (UniProt Q14558)", "values": [{"measurement": "dose-dependent thermal stabilisation call", "value": "inactive: 0"}]}
{"target": "RABAC1 (UniProt Q9UI14)", "values": [{"measurement": "dose-dependent thermal stabilisation call", "value": "inactive: 0"}]}
{"target": "RBM5 (UniProt P52756)", "values": [{"measurement": "dose-dependent thermal stabilisation call", "value": "inactive: 0"}]}
{"target": "PTPMT1 (UniProt Q8WUK0)", "values": [{"measurement": "dose-dependent thermal stabilisation call", "value": "inactive: 0"}]}
{"target": "PSMD13 (UniProt Q9UNM6)", "values": [{"measurement": "dose-dependent thermal stabilisation call", "value": "inactive: 0"}]}
{"target": "PSTPIP1 (UniProt O43586)", "values": [{"measurement": "dose-dependent thermal stabilisation call", "value": "inactive: 0"}]}
{"target": "PSMD4 (UniProt P55036)", "values": [{"measurement": "dose-dependent thermal stabilisation call", "value": "inactive: 0"}]}
{"target": "PSMG2 (UniProt Q969U7)", "values": [{"measurement": "dose-dependent thermal stabilisation call", "value": "inactive: 0"}]}
{"target": "PSMD9 (UniProt O00233)", "values": [{"measurement": "dose-dependent thermal stabilisation call", "value": "inactive: 0"}]}
{"target": "PUF60 (UniProt Q9UHX1)", "values": [{"measurement": "dose-dependent thermal stabilisation call", "value": "inactive: 0"}]}
{"target": "QKI (UniProt Q96PU8)", "values": [{"measurement": "dose-dependent thermal stabilisation call", "value": "inactive: 0"}]}
